Reference: the supplement of paper PMC12823440, “Inhibitors supercharge kinase turnover through native proteolytic circuits” (Nature, 2025)
Where a name gives a salt, the structure may show the parent alone. The list shows a part of the results. The calls rarely recur for the same compound in another form.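 Kinases were expressed as nanoluciferase fusions in K562 cells and luminescence was read every 4 h between 2 and 18 h as percent of control, DMSO set to 100% and a positive control to 0%. A time point counts as decreased when the signal drops significantly (2 sigma). The hit call is the authors' own, does not follow from the count of time points alone, and its rule is not shown.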

By UniProt entry, the sequences of proteins in these tests, tags left out. Where a name states a change or a piece, a line headed by the entry shows the natural chain unless it says otherwise.
UniProt Q00526: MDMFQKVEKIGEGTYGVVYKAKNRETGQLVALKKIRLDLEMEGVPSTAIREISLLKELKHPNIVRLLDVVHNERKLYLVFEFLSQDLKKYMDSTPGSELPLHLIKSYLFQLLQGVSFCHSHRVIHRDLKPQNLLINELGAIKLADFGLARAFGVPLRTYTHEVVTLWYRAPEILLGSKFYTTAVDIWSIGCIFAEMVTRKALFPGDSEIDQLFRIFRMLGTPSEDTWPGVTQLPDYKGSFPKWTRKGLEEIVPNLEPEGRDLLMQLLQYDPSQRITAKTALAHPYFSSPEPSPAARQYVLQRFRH

What follows are molecules tested against CDK2 (UniProt P24941) (assay: kinase-Nluc reporter destabilization hit call (1 = scored as downregulated) (binary); higher = compound decreases kinase abundance). Details: K562; 2-18 h.

kinase-Nluc reporter destabilization hit call, inactive:
Cc1cc(CS(=O)(=O)c2ccccc2)cc(OCc2ccc(CN3CCC[C@@H]3CO)cc2)c1 [PF-543 (Citrate)] (10 µM) 0
Cc1[nH]c(/C=C2\C(=O)Nc3ccc(S(=O)(=O)Cc4c(Cl)cccc4Cl)cc32)c(C)c1C(=O)N1CCC[C@@H]1CN1CCCC1 (2.5 µM) 0
Cc1cc(F)c(C(=O)Nc2cccc(-c3nncn3C(C)C)n2)cc1-n1cnc(C2CC2)c1 [Selonsertib] (10 µM) 0
COCCOc1cc2nccc(Nc3n[nH]c(C)c3C)c2cc1S(=O)(=O)C(C)(C)C [RIP2 kinase inhibitor 2] (2.5 µM) 0

These molecules were tested against CDK3 (UniProt Q00526) in the same assay as above. Details: K562; 2-18 h.

kinase-Nluc reporter destabilization hit call, inactive:
N#Cc1ccc2[nH]c(O)c(-c3ccc(CN4CCOCC4)cn3)c2c1 (10 µM) 0
O=C1NCCc2[nH]c(-c3ccnc(-c4cnc5ccccc5c4)c3)cc21 (10 µM) 0
Oc1cc(O)cc(/C=C/c2ccc(O)c(O)c2)c1 [Piceatannol] (10 µM) 0
O=C(NOC[C@H](O)CO)c1ccc(F)c(F)c1Nc1ccc(I)cc1F (2.5 µM) 0
Cn1c(=O)n(-c2ccc(C(C)(C)C#N)cc2)c2c3cc(-c4cnc5ccccc5c4)ccc3ncc21 [Dactolisib (Tosylate)] (10 µM) 0
CCCCNc1ncc(-c2ccc(CN3CCOCC3)cn2)c(NC2CCC(O)CC2)n1 (configuration not stated) (10 µM) 0
O=C(Nc1cc(C(F)(F)F)ccc1N1CCN(Cc2ccccn2)CC1)c1ccc(-c2ccncc2)o1 (10 µM) 0
COC(=O)c1ccc2c(C(=Nc3ccc(N(C)C(=O)CN4CCN(C)CC4)cc3)c3ccccc3)c(O)[nH]c2c1 [Nintedanib] (2.5 µM) 0
COc1cc(F)cc([C@@H](CO)NC(=O)[C@@H](C)N2Cc3ccc(-c4nc(NC5CCOCC5)ncc4Cl)cc3C2=O)c1 [ERK1/2 inhibitor 2] (10 µM) 0
CC(C)c1ccc2oc3nc(N)c(C(=O)O)cc3c(=O)c2c1 [Amlexanox] (10 µM) 0
CN(C)C[C@@H]1CCn2cc(c3ccccc32)C2=C(C(=O)NC2=O)c2cn(c3ccccc23)CCO1 [Ruboxistaurin (hydrochloride)] (10 µM) 0
CCc1nc(-c2cccc(C)c2)c(-c2ccnc(NC(=O)c3ccccc3)c2)s1 (10 µM) 0
CCOc1cc2ncc(-c3cc(N)nc(F)c3)n2cc1S(=O)(=O)C(C)(C)C (10 µM) 0
CC(C)(/C=C(\C#N)C(=O)N1CCC[C@@H](n2nc(-c3ccc(Oc4ccccc4)cc3F)c3c(N)ncnc32)C1)N1CCN(C2COC2)CC1 (2.5 µM) 0
Brc1c(Br)c(Br)c2n[nH]nc2c1Br (10 µM) 0
Nc1nc(OCC2CCCCC2)c2[nH]cnc2n1 (10 µM) 0
COc1ccc(Oc2cc(NCCC(F)(F)F)c3ncc(-c4ccc(C(=O)NC5CC5)c(C)c4)n3n2)c(F)c1F (2.5 µM) 0
COc1cc(C(=O)NC2CCN(C)CC2)c(F)cc1Nc1ncc2c(n1)N(C1CCCC1)CC(F)(F)C(=O)N2C [TAK-960 (dihydrochloride)] (2.5 µM) 0
COc1ccc(NC(=O)N2CCN(c3nc(N)nc4c3cnn4C)[C@@H](C)C2)c(C)c1 (10 µM) 0
O=C(Nc1ccc(-c2ccnc(Nc3ccc(N4CCOCC4)cc3)n2)cc1)C1CCCN1 (configuration not stated) (10 µM) 0
COc1nccc(-c2c(-c3ccc(F)cc3)ncn2C2CCC(O)CC2)n1 (configuration not stated) (10 µM) 0
NC(=O)c1ccc2nc(-c3ccc(Oc4ccc(Cl)cc4)cc3)[nH]c2c1 (10 µM) 0
Cc1cc(C)c(/C=C2\C(=O)Nc3ccccc32)[nH]1 [Semaxinib] (10 µM) 0
COc1ccc(COc2ccc(Cc3cnc(N)nc3N)cc2OC)cc1 (10 µM) 0
CN1CCN(c2ccc(Nc3cc(-c4cccc(-n5ccc6cc(C7CC7)cc(F)c6c5=O)c4CO)cn(C)c3=O)nc2)CC1 (2.5 µM) 0
C=CC(=O)N1CCC[C@@H](n2nc(-c3ccc(Oc4ccccc4)cc3)c(C(N)=O)c2N)C1 [Btk inhibitor 2] (10 µM) 0
Cc1c(NC(=O)c2cc3c(s2)CCCC3)cccc1-c1cn(C)c(=O)c(Nc2ccc([C@@H]3C(=O)N(C)CCN3C)cc2)n1 (10 µM) 0
CCOc1ccn(-c2ccc(F)cc2)c(=O)c1C(=O)Nc1ccc(Oc2ccnc(N)c2Cl)c(F)c1 (10 µM) 0
CCn1c(=O)c2cc(C(N)=O)c(N)nc2n(C2CC2)c1=O (10 µM) 0
COc1cc(C(=O)NC2CCN(C)CC2)ccc1Nc1ncc2c(n1)N(C1CCCC1)CC(F)(F)C(=O)N2C (10 µM) 0
CCN1CCN(c2ccc(Nc3cc(N(C)C(=O)Nc4c(Cl)c(OC)cc(OC)c4Cl)ncn3)cc2)CC1 [Infigratinib] (10 µM) 0
CN1CCN(S(=O)(=O)c2ccc(-c3cnc(N)c(C(=O)Nc4cccnc4)n3)cc2)CC1 (10 µM) 0
Cc1cccc([C@@H](CO)NC(=O)[C@@H](C)N2Cc3ccc(-c4nc(NC5CCOCC5)ncc4Cl)cc3C2=O)c1 [ERK1/2 inhibitor 1] (10 µM) 0
COc1cc(CCc2cc(-c3nc4ccc(N5CCN(C)CC5)cc4[nH]3)n[nH]2)cc(OC)c1 (10 µM) 0
Cc1cc(CS(=O)(=O)c2ccccc2)cc(OCc2ccc(CN3CCC[C@@H]3CO)cc2)c1 [PF-543 (Citrate)] (10 µM) 0
Cc1[nH]c(/C=C2\C(=O)Nc3ccc(S(=O)(=O)Cc4c(Cl)cccc4Cl)cc32)c(C)c1C(=O)N1CCC[C@@H]1CN1CCCC1 (2.5 µM) 0
Cc1cc(F)c(C(=O)Nc2cccc(-c3nncn3C(C)C)n2)cc1-n1cnc(C2CC2)c1 [Selonsertib] (10 µM) 0
COCCOc1cc2nccc(Nc3n[nH]c(C)c3C)c2cc1S(=O)(=O)C(C)(C)C [RIP2 kinase inhibitor 2] (2.5 µM) 0
